Results reported in paper PMC12520681.
These are yes or no findings as the source states them, for the method shown. In cells and extracts the contact can be indirect. A yes stands for co-enrichment or nearness to the bait. Other partners may have been found.

The chains behind the UniProt entries cited, without tags or fusion partners.
UniProt Q9P258: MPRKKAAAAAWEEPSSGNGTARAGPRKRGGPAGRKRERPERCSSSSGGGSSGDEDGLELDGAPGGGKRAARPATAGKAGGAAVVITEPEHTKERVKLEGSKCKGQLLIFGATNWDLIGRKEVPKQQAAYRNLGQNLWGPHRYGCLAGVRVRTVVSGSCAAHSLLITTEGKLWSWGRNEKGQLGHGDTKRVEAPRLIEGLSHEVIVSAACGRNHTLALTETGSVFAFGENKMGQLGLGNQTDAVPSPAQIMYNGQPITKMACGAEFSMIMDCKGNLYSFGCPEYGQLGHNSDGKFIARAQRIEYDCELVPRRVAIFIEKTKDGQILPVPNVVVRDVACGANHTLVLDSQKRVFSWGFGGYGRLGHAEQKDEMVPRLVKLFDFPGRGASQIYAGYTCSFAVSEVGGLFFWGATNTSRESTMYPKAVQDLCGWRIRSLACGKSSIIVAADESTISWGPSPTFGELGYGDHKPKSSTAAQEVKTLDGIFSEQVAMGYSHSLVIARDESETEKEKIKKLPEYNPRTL
UniProt P08670: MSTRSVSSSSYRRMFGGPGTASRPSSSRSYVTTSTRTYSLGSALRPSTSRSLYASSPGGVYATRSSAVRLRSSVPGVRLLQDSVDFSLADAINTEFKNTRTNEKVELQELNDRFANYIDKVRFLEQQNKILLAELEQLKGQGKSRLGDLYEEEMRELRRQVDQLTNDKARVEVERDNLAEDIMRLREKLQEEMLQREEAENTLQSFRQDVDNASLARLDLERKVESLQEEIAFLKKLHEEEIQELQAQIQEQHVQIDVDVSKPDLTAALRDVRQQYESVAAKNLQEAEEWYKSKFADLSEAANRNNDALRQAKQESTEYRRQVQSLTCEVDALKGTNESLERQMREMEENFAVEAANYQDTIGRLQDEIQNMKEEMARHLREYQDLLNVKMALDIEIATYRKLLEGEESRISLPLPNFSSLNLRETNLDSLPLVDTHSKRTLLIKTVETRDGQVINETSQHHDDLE

Target: Flag-RCC2 (UniProt Q9P258)
Experiment: affinity purification with mass spectrometry; Flag-RCC2 construct or empty vector overexpressed in HEK293T cells; gel bands digested with trypsin, LC-MS/MS (Q Exactive)

binding: binds
Substance: Vimentin (from UniProt P08670 1-466)
